Measured values from IntAct's records for PubMed 25910212.

B1: Adiponectin (Homo sapiens), Q15848 (parent)
chain: MLLLGAVLLLLALPGHDQETTTQGPGVLLPLPKGACTGWMAGIPGHPGHNGAPGRDGRDGTPGEKGEKGDPGLIGPKGDIGETGVPGAEGPRGFPGIQGRKGEPGEGAYVYRSAFSVGLETYVTIPNMPIRFTKIFYNQQNHYDGSTGKFHCNIPGLYYFAYHITVYMKDVKVSLFKKDKAMLFTYDQYQENNVDQASGSVLLHLEVGDQVWLQVYGEGERNGLYADNDNDSTFTGFLLYHDTN

Variants of: B1
Conditions: with bni3l_human BNIP3L

effect of a mutation on the interaction	Variant
with no effect	R112C
